Non-standard residues stand in square brackets, D forms with d. Dap = NC[C@H](N)C(=O)O
Experiment: general procedure: Fmoc solid-phase peptide synthesis; H-Pro-2-Chlorotrityl resin (0.76 meq/g); HBTU/DIPEA; cyclization with BOP/HOBt
Details: whole synthesis, 214 nm, scale of the general procedure 0.10 mmol

Substance | final HPLC purity [%]
cyclo(PH[dF]RWNA[dP]) | >95
cyclo(P[dF]RW[dP]) | >96
cyclo(PH[dF]RWN[dP]) | >96
cyclo(P[dF]RWN[dP]) | >95
cyclo(P[dF]RWNAF[dP]) | >99
cyclo(PH[dF]RW[dP]) | >98
cyclo(PH[dF]RWNAF[dP]) | >99
cyclo(PH[dF]RW[Dap]AF[dP]) | >99
cyclo(P[dF]RW[Dap][dP]) | >96
cyclo(P[dF]RW[Dap]AF[dP]) | >99
cyclo(PH[dF]RW[Dap][dP]) | >96
cyclo(P[dF]RW[Dap]A[dP]) | >98
cyclo(P[dF]RWNA[dP]) | >97

Reference: patent publication US11124541B2 (REGENTS OF THE UNIVERSITY OF MINNESOTA, priority 2016, dated 2021)
